Data reported in PubChem BioAssay AID504648 (National Center for Advancing Translational Sciences (NCATS), 2011).
Out of some 390,000 compounds screened, about 610 (0.16%) were called active. Inconclusive means that the source gave no clear call. Such entries were picked first, then a sample of the others. Calls come from the whole dose curve; as a rule, active = well fitted inhibition curve with a large enough effect; inconclusive = small, poorly fitted or top-dose-only effect, or effect the other way, or another doubt; inactive = no such curve, though single readings can be large or run the other way. Potencies beside an inconclusive call are fits to weak or partial responses and may not hold up.

Assay: Nrf2 qHTS screen for inhibitors: counterscreen for cytotoxicity
Details: A549 ARE-Fluc cells, CellTiter-Fluor viability, 18-24 h; series mostly up to 46 µM
Summary of the method: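 A549 ARE_Fluc cells in 5% FBS OPTI-MEM were exposed to compounds in concentration-response for 18-24 h at 37 deg C. Viability was read by CellTiter-Fluor fluorescence (Ex 405/Em 525) after 30 min, before the luciferase read.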
Potency is the fitted concentration of half-maximal effect.

Row | SMILES | Potency
1 | CCOc1cc(/C=C2\NC(=S)N(c3c(C)n(C)n(-c4ccccc4)c3=O)C2=O)ccc1O | inconclusive: 18.4 µM [falling, single point]
2 | c1ccc(-n2c(-c3ccncc3)nnc2-c2ccco2)cc1 | inactive
3 | CN(C)CCCNC(=O)C1(O)c2cc(Br)ccc2NC(=O)N1c1ccc(Cl)cc1 (stereo not drawn) | inactive
4 | COc1ccc(CCNC(=O)c2ccc3c(c2)N=C(C)c2cc(C)ccc2S3)cc1OC | inactive
5 | CN(C)c1cc[n+](CC(=O)Nc2ccc(Cl)c([N+](=O)[O-])c2)cc1 | inactive
6 | CSc1nsc2nc(=O)c(/C=C3\C(C)=Nc4ccccc43)c(N)n12 | inconclusive: 11.6 µM [falling, partial curve, poor fit]
7 | O=C(c1ccc2c(c1)N(Cc1c(F)cccc1Cl)C(=O)c1ccccc1S2)N1CCCC1 | inconclusive: 18.4 µM [falling, partial curve, poor fit]
8 | CCc1ccc(NC(=O)c2ccc(Cn3nc(N4CCN(c5ccccc5)CC4)ccc3=O)o2)cc1 | inconclusive: 20.6 µM [falling, partial curve]
9 | COc1ccc(-c2cc(C(=O)N(C)CC(=O)Nc3ccccc3C(F)(F)F)c3ccccc3n2)cc1OC | inactive
10 | C[C@H]1CCC[C@]2(C)C[C@H]3OC(=O)C(CN4CCCCCC4)[C@H]3C=C12 (stereo partly drawn) | inconclusive: 25.9 µM [falling, partial curve, poor fit]
11 | Cc1ccc2cc(CN(CCCN3CCOCC3)C(c3nnnn3Cc3ccco3)C(C)C)c(=O)[nH]c2c1C (stereo not drawn) | inactive
12 | Cc1nn(-c2nc3ccccc3s2)c(C)c1Oc1ccccc1O | inconclusive: 29.1 µM [falling, single point]
13 | O=C(NCC(c1ccco1)N1CCN(c2ccccc2F)CC1)c1ccc2c(c1)OCO2 (stereo not drawn) | inconclusive: 9.2 µM [falling, partial curve, poor fit]
14 | O=C(CN(C1CCCCC1)S(=O)(=O)c1ccc(F)cc1)NCC1CCCO1 (stereo not drawn) | inconclusive: 29.1 µM [falling, single point]
15 | COc1ccc(CC(=O)Nc2cccc(S(=O)(=O)N3CCOCC3)c2)cc1OC | inactive
16 | COc1cc(NC(=O)N2c3ccccc3Sc3ccccc32)c(C(=O)O)cc1OC | inactive
17 | Cc1cc(C)cc(CC(Cc2nc3ccccc3[nH]2)c2nc3ccccc3[nH]2)c1 (stereo not drawn) | inconclusive: 29.1 µM [falling, single point]
18 | O=C(c1ccc(COc2c(F)c(F)cc(F)c2F)o1)N1CCN(c2ccccc2)CC1 | inconclusive: 23.1 µM [falling, partial curve, poor fit]

Random excerpt: two records from the list.
Row | SMILES | Potency
4 | COc1ccc(CCNC(=O)c2ccc3c(c2)N=C(C)c2cc(C)ccc2S3)cc1OC | inactive
12 | Cc1nn(-c2nc3ccccc3s2)c(C)c1Oc1ccccc1O | inconclusive: 29.1 µM [falling, single point]
